About 620 (0.19%) of roughly 320,000 compounds were called active. Calls follow the shape of the dose curve; as a rule, active = well fitted activation curve with a large enough effect; inconclusive = small, poorly fitted or top-dose-only effect; inactive = no such curve, though single readings can be large or run the other way. Only a part is listed here, and it is no random draw. Entries without a call were filed so in the source.
Assay: qHTS Assay for Identifying a Potential Treatment of Ataxia-Telangiectasia; also: nearly all actives have a fitted effect of over 45% in size; as to activation: % of control where 0% means no effect
Conditions: […] A-T fibroblasts, KAP-1 phosphorylation AlphaLISA, neocarzinostatin DNA damage 30 min before lysis; activation: at 57.5 µM (top of the series)
Excerpt: NIH Chemical Genomics Center [NCGC] NIH Molecular Libraries Probe Centers Network [MLPCN] MLPCN Grant: MH089030-01 Assay Submitter (PI): Wei Zheng and Yosef Shiloh Ataxia-telangiectasia (A-T) is a devastating and progressive disease for which, there is no cure. Although A-T is a multisystem disease, it is stereotyped characterized by its neurological symptoms such as truncal ataxia, due to cerebellar cortical degeneration of the Purkinje and granule cells. Other symptoms of A-T are telangiectasias (dilated blood vessels), primary immunodeficiency, marked sensitivity to ionizing radiation (IR), chromosomal instability and predisposition to cancer. The underlying genetic cause of A-T is null mutations in the ATM (A-T mutated) gene. ATM is a nuclear serine/threonine kinase that functions as a master regulator of the cellular responses to double strand breaks (DSBs) in the DNA. Upon activation by DSBs, ATM phosphorylates a plethora of down stream targets, including KAP-1 on […]. KAP-1 phosphorylation occurs shortly in response to DSBs and mediates global chromatin relaxation, which facilitates DSB repair. To screen for small molecules that will compensate for the loss of ATM in cells derived from A-T patients, we monitored KAP-1 phosphorylation as a readout for ATM-like activity using an AlphaLISA assay.
qHTS Assay Protocol: Step,Parameter,Value,Description 1. Cell Plating, 3 ul, 500 cells/well in OPTI-MEM, 1% FBS, 1% Pen/Strep 2. Incubation, 16-24 hr, 37C, 5% CO2, 95% humidity 3. Library compounds, 23 nl, 76.7 - 0.61uM dilution series final concentration 4. Incubation, 60 min, 37C, 5% CO2, 95% humidity 5. Reagent, 1 ul, 1600 ng/ml NCS in PBS + 0.05% BSA + 0.005% Tween 20 6. Incubation, 30 min, 37C, 5% CO2, 95% humidity 7. Reagent, 1 ul, Premixed detection reagents and lysis buffer 8. Reagent, 1 ul, 0.6% Antifoam A 9. Incubation, 6 hr, 25C, 95% humidity 10. Readout, EnVision, EnVision plate reader. AlphaScreen 1536-well protocol Cells were plated using medium-binding white solid-bottom tissue culture treated Kalypsys plates. Multidrop dispense of 3 uL of […] (hTERT immortalized A-T patient fibroblast cells). Detection reagent and lysis buffer was 3.75nM Rab-a-pKAP1 antibody bound to 75 ng/ul AlphaScreen SA donor bead, 3.75 nM Biot-M-a-KAP1 antibody bound to AlphaLISA protein A acceptor bead, 0.5x protease inhibitor cocktail and 0.25x PerkinElmer lysis buffer. EnVision protocol for 1536-well AlphaScreen read (30ms excitation, 100ms read), about 10 min/plate.
Potency is read from the fitted curve at half-maximal effect.

SMILES	Potency	activation
O=C(Nc1ccc(F)cc1)N(CCCN1CCOCC1)Cc1cc2cc3c(cc2[nH]c1=O)OCCO3	active: 14.1 µM	–
O=C(c1cccc(F)c1)N1CCCC(C(=O)N2CCCCCC2)C1 (stereo unspecified)	–	81.4%
CCOc1ccc(C(=O)NC(=S)Nc2cccnc2)cc1[N+](=O)[O-]	–	105%
CN(C)C(=O)CCc1ccc2c3c([nH]c2c1)[C@]1(CCC2CCCC2)[C@@H](C(=O)N2CCOCC2)C[C@H](CC(=O)NCC24CC5CC(CC(C5)C2)C4)C(=O)N1CC3	–	inactive: -43.6%
COc1ccccc1NC(=O)C1CCCN(S(=O)(=O)c2ccc(-n3cnnn3)cc2)C1 (stereo unspecified)	–	263%
O=C(CSc1ccccn1)N/N=C/C=C/c1ccccc1	–	19.3%
OC(COC(c1ccc(F)cc1)c1ccc(F)cc1)CN1CCCC1 (stereo unspecified)	–	70.6%
COc1ccc(N2CCN(C(=O)c3cc4cc(Cl)ccc4[nH]3)CC2)cc1	–	98.5%
OC(CN1CCCCC1)Cn1c2ccc(Cl)cc2c2cc(Cl)ccc21 (stereo unspecified)	–	62.9%
CCOC(=O)c1c(CSc2ccsc2)n(C)c2cc(Br)c(O)c(CN(C)C)c12	active: 8.91 µM	–
CS(=O)(=O)c1ccc(-c2csc(-c3cccnc3)n2)cc1	–	52.6%
COc1ccccc1C1CCN(C(=O)c2ccc(Cl)cc2)CC1	–	120%
O=C(NCc1nc2ccccc2[nH]1)C1=C[C@H](c2ccccc2)C[C@H](OCCCCO)O1	active: 39.8 µM	–
Fc1cccc(Cl)c1/C=C/c1cnc2ccccc2n1	–	57.9%
CC1(C)CC2(CCO1)OC(=O)CC2C(=O)Nc1c(Cl)cccc1Cl (stereo unspecified)	–	66.7%
CCn1c2c(c3cc(OCC(C)C)ccc31)CCCC2=O	active: 31.6 µM	–
Fc1ccc(C2N(c3ccccc3)C(=S)N3CCCN23)cc1 (stereo unspecified)	–	77%
COc1ccc(N=Nc2ccc(O)c3ncccc23)cc1	–	inactive: -81.8%
CCc1nnc2n1N=C(c1cccc([N+](=O)[O-])c1)CS2	–	84.2%
CC(=O)Nc1ccc(NC2=CC(=O)c3ccccc3C2=O)cc1	–	97.1%
COc1ccc(N(C)S(=O)(=O)c2cccc(C(=O)OCC(=O)NCc3ccccc3OC)c2)cc1	–	81.8%

Laid out differently: entries from further up.
SMILES | Potency | activation
OC(CN1CCCCC1)Cn1c2ccc(Cl)cc2c2cc(Cl)ccc21 (stereo unspecified) | – | 62.9%
CCOC(=O)c1c(CSc2ccsc2)n(C)c2cc(Br)c(O)c(CN(C)C)c12 | active: 8.91 µM | –

Source: PubChem BioAssay AID485349 (National Center for Advancing Translational Sciences (NCATS), 2010)
